Library screening results

A: 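Whole-cell assay for inhibitors of Mycobacterium tuberculosis growth, labelled Cornell in the record; the read-out is not stated. The concentration is filed as 10 mM, unlikely as a test dose, so the dose is not known. The record gives no direction; compounds strong in two other growth screens of this library score well above the rest, so higher reads as stronger inhibition. Of about 53,000 compounds tested this way, about 900 (1.7%) reached 50% or more in at least one test.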
B: 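Assay on Mycobacterium tuberculosis, filed only as a heat shock assay from Cornell; the read-out is not stated. The concentration is filed as 10 mM, unlikely as a test dose, so the dose is not known. Higher reads as stronger inhibition (inferred: compounds with an IC50 in retests scored well above the rest). Size under these conditions: about 69,000 compounds, about 930 of them at 50% or above in at least one test.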

Results are given as percent effect. The controls that fix the scale are not given in the record; negative values are as filed. Compounds were drawn at random from those tested, without regard to their results. A dash means the value is not listed here; it may have been measured.

structure,A,B
Cc1nc(CNC(=O)CCN2CCN(c3ccccc3)CC2)oc1C,6.22,-12.71
CC(C)n1cc(N2CC(C(=O)N3CCc4ccccc4C3)CC2=O)cn1 (centres undefined),-23.7,3.614
CC(Cn1ccnc1)NC(=O)NCc1ccc2c(c1)OCCO2 (centres undefined),-,1.669
COc1ccc(CN2CCCC3(CCN(c4ccsc4)C3=O)C2)cc1.O=C(O)C(F)(F)F (centres undefined),-,27.7
CC(=O)NCC(=O)N1Cc2cnc(CC(C)C)nc2C1,-3.153,1.864
Cc1cc(C)n(-c2nc(NCCCO)c3c4c(sc3n2)CCCC4)n1,82.78,101.1
[H][C@@]12CN(C(=O)c3ccsc3)C[C@]1([H])C(=O)N(Cc1cccc(F)c1)C2,21.64,-3.133
O=C(Cn1ccc2ncccc2c1=O)N1CCSCC1,-,-149.4
COc1ccc(C(=O)N2CCCC(NC(=O)C(C)C)C2)c(O)c1 (centres undefined),-15.25,-2.985
[H][C@]12CCN(C(=O)NC)CC[C@@]1([H])S(=O)(=O)N(Cc1cccc(OC)c1)C2,-4.081,32.39
CNC(=O)c1cccc(CNC(C)c2cc(Cl)ccc2OC)c1 (centres undefined),-16.19,-13.72
CCCOc1ccc(OCCN2CCOCS2(=O)=O)cc1,1.231,9.786
Cc1ccc(C2(CN3CCN(Cc4cncn4C)CC3)CC2)cc1.Cl,-21.08,-34.84
CCC(C)(CO)NC(=O)Nc1cc2c(cc1SC)OCCO2 (centres undefined),-,-7.891
O=C(NCc1ccco1)C1CCCN1Cc1nc(-c2ccco2)no1 (centres undefined),38.16,21.66
CN1CCOC(CNC(=O)CCCc2ccccc2)C1 (centres undefined),-7.452,-17.91
COc1ccc(-c2nccn2CC(O)CN2CCCC2)c(F)c1 (centres undefined),2.194,0.8075
O=C(O)C(F)(F)F.[H][C@]12CCC[C@@H](CNc3ccccn3)[C@@]1([H])CN(Cc1cccnc1)C2,-,-19.58
CCOCC(=O)N1CCCn2c(nnc2Cn2cccc2)C1,-5.462,0.7918
CC(C)Cc1ncc(CNc2cnccc2CO)s1,18.45,7.802
CCCc1nc(N2CCCN(c3ccncc3)CC2)c2cnn(C)c2n1,-13.14,13.56
O=C(c1c(O)cnc2ccccc12)N1CCN(CC(F)F)CC1,19.69,2.035
CN(C1CCCCC1)S(=O)(=O)NC1CCCN(c2ncccn2)C1 (centres undefined),7.546,6.462
OCCOc1ccc(NCc2cccc3[nH]ccc23)cn1,32.57,14.79
CN(CCn1nc2ccccn2c1=O)CC(=O)NC1CC1,-0.7088,-5.414
CCc1nnc(N2C[C@@H](NC(C)=O)[C@H](c3ccc(C)o3)C2)s1,34.22,8.975
COC(=O)N1CCC(CNC(=O)C2CCN(S(C)(=O)=O)CC2)CC1,-2.459,16.66
Cn1cc(CN2CCC3(CC2)CC(Nc2nccs2)CO3)cn1.O=C(O)C(F)(F)F (centres undefined),-3.963,-9.851
CS(=O)(=O)N1CCCC(C(=O)N2CCOc3ccccc32)C1 (centres undefined),-,-18.65
CSCCC(NC(N)=O)C(=O)NCc1ccc(-n2cccn2)cc1 (centres undefined),-,-184.1
Cc1ccccc1C(=O)Nc1cnn(CC(=O)NC2CCCC2)c1,-16,-6.001
COc1cccc(-c2cnnc(N(C)CCC3CCCCO3)n2)c1 (centres undefined),29.21,-42.87
CCc1n[nH]c(C2CN(C(=O)c3nc(C)n4ccccc34)CCO2)n1 (centres undefined),21.49,14.68
COc1cc(NCc2ccncc2)c(-c2nn[nH]n2)cc1OC,96.19,6.649
COc1cc(C#N)ccc1OCC(=O)NS(=O)(=O)c1ccccc1,2.839,11.97
CCn1cc(Cl)c(C(=O)NCCOC)n1,-,-23.55
COCCC1(C(=O)O)CCCN(Cc2cc3c(cc2Cl)OCO3)C1 (centres undefined),-4.778,4.263
Cc1nn(C)cc1-c1cc(C(=O)NCC(C)(C)c2cccc(F)c2)n[nH]1,26.97,22.28
C[C@H](N)C(=O)N1CCC(c2[nH]ncc2-c2ccccc2)CC1,-38.01,15.87
CC(C)c1nc2c(n1C)CCN(CCc1ccccn1)C2,-10.35,-5.177
Cc1nn(CC(=O)N2CCN(c3ccccc3F)CC2)c(C)c1Cl,-1.887,-2.638
Fc1ccc(OCc2nnc([C@H]3CCN(Cc4cccnc4)C3)o2)cc1,-,3.506
CN(CC(N)=O)S(=O)(=O)c1ccc(F)cc1F,-81.8,-12.56
Cc1nn(C)c(C)c1C1CCCN1Cc1nc2ccccc2o1 (centres undefined),-,-15.86
Cc1nc(C)c(C)c(N2C[C@@H](CN3CCCN(C)CC3)[C@@H](CO)C2)n1,18.26,7.72
O=C(O)C(F)(F)F.O=C(O)C(F)(F)F.[H][C@@]12C[C@H](C(=O)NCc3cccnc3)[C@@]([H])(CN(Cc3cccc(C)c3)C1)O2,-19.66,-9.153
Cc1noc(C)c1CNC[C@@]1(COc2cccnc2)C[C@@H](O)[C@@H](O)C1.Cl.Cl,3.655,-50.11
CC(C(=O)N1CCC(Nc2cccnn2)CC1)n1ccnc1 (centres undefined),2.83,21.33
CN(C)C(=O)c1cc2ncc(C(=O)NC3CCCC3)cc2n1C,3.907,-1.718
CSc1cccc(CNC(=O)[C@H]2CNC[C@H](C(=O)N3CCOCC3)C2)c1,20.38,11.79
CCc1nnc(CN(C)C(=O)C2CC(=O)N(C3CC3)C2)o1 (centres undefined),20.13,10.32
Cc1ccc(NC2(C(=O)N3CCn4cncc4C3)CCCCC2)cc1C,-,22.4
Cc1c(Cl)c(C(=O)NC(C)CN2CCOCC2)nn1C (centres undefined),3.624,11.81
CC(C)c1nc2n(n1)CC(NCc1nnc(C3CC3)o1)CC2 (centres undefined),-,-10.33
CCOCCNc1nc(-c2ccncc2)nc2c1CCNCC2,-21.31,-10.32
CC(C)N1CCc2nnc(COc3cncnc3)n2CC1.O=C(O)C(F)(F)F,14.98,-11.8
COc1ccc(NC(C)c2nnnn2-c2ccccc2)cc1F (centres undefined),10.37,-11.93
CC(C)C(=O)N1CCN(Cc2cc(-c3ccncc3)nn2C)CC1,-16.61,-16.51
CN(C)C(=O)c1cncnc1-c1ccc(CNC(=O)C2CC2)cc1,37.26,3.249
Cn1nccc1C(=O)NCCN1CCC(O)(c2ccc(F)cc2)CC1,44.41,-6.004
Cc1ccc(-c2ccnc(N(C)CC3CCCO3)n2)c(C)n1 (centres undefined),18.15,-12.67
CC(=O)N1CCC2(CCN(Cc3ccc(Cl)c(C(F)(F)F)c3)CC2)C1,43.5,-3.071
CCc1nnc(Nc2cc(C)nc(C3CCN(c4cnccn4)C3)n2)s1 (centres undefined),-9.278,-14.76
CCN(C)C(=O)c1cc(-c2cn(C(C)C)cn2)n2ccccc12,-58.24,-18.58
OCC(CO)Nc1ccc2c(Cl)ccc(Cl)c2n1,-,-20.37
CC(C)c1cc(C(=O)N2CCCC(Cn3cc(CO)nn3)C2)on1 (centres undefined),2.594,-22.79
Fc1cc(Cl)cnc1N1CCCC(c2nccn2Cc2ccncc2)C1 (centres undefined),15.78,15.1
CCc1sc(C(=O)NC2CC2)cc1C,-37.81,14.42
CNc1cc(N2CCCC2CNCc2cccc(C#N)c2)ncn1 (centres undefined),-49.32,-6.111
O=C(NCc1cccnc1-n1cncn1)C1CC2(CCNCC2)CN1 (centres undefined),13.16,-0.3925
CN(C)Cc1cn(-c2ccccc2C(=O)NCCC2CCCN2C)cn1 (centres undefined),-16.52,-31.56
Cc1ccc(-c2nc(CN3CCOC(Cn4cccn4)C3)no2)cc1 (centres undefined),-,60.58
O=C(CN1CCCC1c1nc(-c2ccccc2)no1)N1CCOCC1 (centres undefined),14.65,9.813
CCc1nc(NS(=O)(=O)c2cccc(F)c2C)no1,37.51,3.949
Cc1ccc(NC2CCN(C(=O)CCc3ccncc3)CC2)nn1,23.46,-7.795
Cc1cc(C)c(CNC(=O)C2COc3ccccc3C2)c(=O)[nH]1 (centres undefined),-,5.131
Cc1cc(N2CCC(O)(CN(C)C(=O)CCN)CC2)c2cnccc2n1,43.24,-17.3
O=C(CN1CCCCC1C1OCCO1)Nc1ccc(F)c(F)c1 (centres undefined),17.74,4.985
CC1CCCCN1C(=O)CCc1nnc(-c2ccccc2)o1 (centres undefined),3.13,3.333
CC(C)CNC(=O)c1cccc(CN2CCc3c(ncn3C)C2)c1,-,-1.578
Cc1nc(C)c(C(=O)Nc2cc(N3CCC(C)CC3)ncn2)s1,22.23,0.9367

Once more, the final 5:

structure,A,B
Cc1cc(N2CCC(O)(CN(C)C(=O)CCN)CC2)c2cnccc2n1,43.24,-17.3
O=C(CN1CCCCC1C1OCCO1)Nc1ccc(F)c(F)c1 (centres undefined),17.74,4.985
CC1CCCCN1C(=O)CCc1nnc(-c2ccccc2)o1 (centres undefined),3.13,3.333
CC(C)CNC(=O)c1cccc(CN2CCc3c(ncn3C)C2)c1,-,-1.578
Cc1nc(C)c(C(=O)Nc2cc(N3CCC(C)CC3)ncn2)s1,22.23,0.9367

The values are deposited in ChEMBL (CHEMBL3988442, “University of Dundee, Small-Polar-MMV Screening Library” (2021)).